## Drug screen on melanoma cell lines: cell count

Values as published with doi:10.1371/journal.pone.0140310, rounded.

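Human melanoma cell lines in 1,536-well plates were treated with a pair of drugs for 72 h, then fixed, stained and imaged. The read-out is cell count (nuclei) in % of the DMSO control; lower values mean stronger growth inhibition or killing. Concentrations were fixed for each drug; these are the lower of two levels, a fifth of the higher. These are primary screening values without error estimates.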
This is part of the screen, not chosen by result.
An entry leaves out what has no value listed here.

Drug key:
IMD-0354: O=C(Nc1cc(C(F)(F)F)cc(C(F)(F)F)c1)c1cc(Cl)ccc1O at 0.016 µM
FK866: O=C(/C=C/c1cccnc1)NCCCCC1CCN(C(=O)c2ccccc2)CC1 at 0.01 µM
indole-3-carbinol: OCc1c[nH]c2ccccc12 at 0.8 µM
GW441756: Cn1cc(/C=C2\C(=O)Nc3cccnc32)c2ccccc21 at 0.4 µM
GSK0660: COC(=O)c1sccc1S(=O)(=O)Nc1ccc(Nc2ccccc2)cc1OC at 1 µM
PD173074: CCN(CC)CCCCNc1ncc2cc(-c3cc(OC)cc(OC)c3)c(NC(=O)NC(C)(C)C)nc2n1 at 0.1 µM
TCS401: O=C(O)C(=O)Nc1sc2c(c1C(=O)O)CCNC2 at 1.67 µM
MK-2206: NC1(c2ccc(-c3nc4ccn5c(=O)[nH]nc5c4cc3-c3ccccc3)cc2)CCC1 at 0.4 µM
ENMD-2076: Cc1cc(Nc2cc(N3CCN(C)CC3)nc(/C=C/c3ccccc3)n2)n[nH]1 at 0.04 µM
JZL184: O=C(Oc1ccc([N+](=O)[O-])cc1)N1CCC(C(O)(c2ccc3c(c2)OCO3)c2ccc3c(c2)OCO3)CC1 at 1 µM
stibogluconate: O=C(O)[C@@H]1[O][Sb](=[O])([O][Sb]2(=[O])[O][C@H]([C@H](O)CO)[C@H](O)[C@H](C(=O)O)[O]2)[O][C@H]([C@H](O)CO)[C@@H]1O (stereo partly drawn) at 2 µM
nilutamide: CC1(C)NC(=O)N(c2ccc([N+](=O)[O-])c(C(F)(F)F)c2)C1=O at 1 µM
ABT-263: CC1(C)CCC(c2ccc(Cl)cc2)=C(CN2CCN(c3ccc(C(=O)NS(=O)(=O)c4ccc(N[C@H](CCN5CCOCC5)CSc5ccccc5)c(S(=O)(=O)C(F)(F)F)c4)cc3)CC2)C1 at 0.4 µM
AS-252424: O=C1NC(=O)/C(=C/c2ccc(-c3ccc(F)cc3O)o2)S1 at 1 µM
embelin: CCCCCCCCCCCC1=C(O)C(=O)C=C(O)C1=O at 1.2 µM
vincristine: CC[C@]1(O)C[C@H]2CN(CCc3c([nH]c4ccccc34)[C@@](C(=O)OC)(c3cc4c(cc3OC)N(C=O)[C@H]3[C@@](O)(C(=O)OC)[C@H](OC(C)=O)[C@]5(CC)C=CCN6CC[C@]43[C@@H]65)C2)C1 at 0.0001 µM
A-769662: N#Cc1c(O)c2c(-c3ccc(-c4ccccc4O)cc3)csc2[nH]c1=O at 2 µM
PF-562271: CN(c1ncccc1CNc1nc(Nc2ccc3c(c2)CC(=O)N3)ncc1C(F)(F)F)S(C)(=O)=O at 0.08 µM
L-779450: Oc1cc(-c2nc(-c3ccccc3)[nH]c2-c2ccncc2)ccc1Cl at 0.2 µM
GW2580: COc1ccc(COc2ccc(Cc3cnc(N)nc3N)cc2OC)cc1 at 1 µM

- AS-252424 + FK866 : A101D: 96.8; C32: 120; A2058: 109; 501mel: 97.0
- JZL184 + PF-562271 : A101D: 109; C32: 74.0; A2058: 77.6; 501mel: 82.3
- PD173074 + FK866 : A101D: 86.7; C32: 82.5; A2058: 99.9
- vincristine + TCS401 : A101D: 68.3; C32: 90.2; A2058: 47.9; 501mel: 77.7
- ENMD-2076 + JZL184 : A101D: 95.7; C32: 92.8; A2058: 99.8; 501mel: 96.4
- MK-2206 + JZL184 : A101D: 84.0; C32: 99.6; A2058: 73.7; 501mel: 86.4
- GW441756 + ABT-263 : A101D: 68.3; C32: 62.4; A2058: 99.4
- ABT-263 + JZL184 : A101D: 49.4; C32: 46.0; A2058: 101
- FK866 + L-779450 : A101D: 93.7; C32: 84.4; A2058: 99.9; 501mel: 67.1
- ABT-263 + GW2580 : A101D: 64.3; C32: 54.1; A2058: 91.5
- IMD-0354 + PD173074 : A101D: 99.4; C32: 105; A2058: 98.3; 501mel: 85.0
- PD173074 + A-769662 : A375: 95.7; A101D: 120; C32: 112; A2058: 107; 501mel: 113
- GSK0660 + FK866 : A101D: 105; C32: 90.6; A2058: 94.8; 501mel: 79.6
- AS-252424 + stibogluconate : A101D: 106; C32: 90.7; A2058: 96.8; 501mel: 93.0
- FK866 + embelin : A101D: 72.2; C32: 77.3; A2058: 104; 501mel: 102
- nilutamide + PD173074 : A375: 111; A101D: 114; C32: 99.7; A2058: 105; 501mel: 79.4
- TCS401 + AS-252424 : A375: 95.8; A101D: 109; C32: 95.9; A2058: 95.8; 501mel: 104
- TCS401 + IMD-0354 : A101D: 101; C32: 105; A2058: 100; 501mel: 97.5
- nilutamide + embelin : A375: 114; A101D: 100; C32: 98.5; A2058: 101; 501mel: 119
- JZL184 + indole-3-carbinol : A101D: 93.1; C32: 108; A2058: 97.2; 501mel: 71.7
- TCS401 + FK866 : A101D: 90.2; C32: 91.9; A2058: 107; 501mel: 77.0

The first 2 entries again:

* AS-252424 + FK866 | A101D: 96.8; C32: 120; A2058: 109; 501mel: 97.0
* JZL184 + PF-562271 | A101D: 109; C32: 74.0; A2058: 77.6; 501mel: 82.3